Experimental data reported in PubChem BioAssay AID540275 (National Center for Advancing Translational Sciences (NCATS), 2011).
The campaign covered roughly 320,000 compounds. About 620 (0.19%) were called active. Inconclusive results, whose numbers are uncertain, are shown with a selection of clear calls. Cut-off read from the data, not from the text of the source: active = activation above about 80%; inconclusive = between about 30% and that limit; inactive = weaker than that.

Sequences of proteins named here, by UniProt entry; tags and fusion partners are left off.
UniProt Q8NER1, whole entry, looked up: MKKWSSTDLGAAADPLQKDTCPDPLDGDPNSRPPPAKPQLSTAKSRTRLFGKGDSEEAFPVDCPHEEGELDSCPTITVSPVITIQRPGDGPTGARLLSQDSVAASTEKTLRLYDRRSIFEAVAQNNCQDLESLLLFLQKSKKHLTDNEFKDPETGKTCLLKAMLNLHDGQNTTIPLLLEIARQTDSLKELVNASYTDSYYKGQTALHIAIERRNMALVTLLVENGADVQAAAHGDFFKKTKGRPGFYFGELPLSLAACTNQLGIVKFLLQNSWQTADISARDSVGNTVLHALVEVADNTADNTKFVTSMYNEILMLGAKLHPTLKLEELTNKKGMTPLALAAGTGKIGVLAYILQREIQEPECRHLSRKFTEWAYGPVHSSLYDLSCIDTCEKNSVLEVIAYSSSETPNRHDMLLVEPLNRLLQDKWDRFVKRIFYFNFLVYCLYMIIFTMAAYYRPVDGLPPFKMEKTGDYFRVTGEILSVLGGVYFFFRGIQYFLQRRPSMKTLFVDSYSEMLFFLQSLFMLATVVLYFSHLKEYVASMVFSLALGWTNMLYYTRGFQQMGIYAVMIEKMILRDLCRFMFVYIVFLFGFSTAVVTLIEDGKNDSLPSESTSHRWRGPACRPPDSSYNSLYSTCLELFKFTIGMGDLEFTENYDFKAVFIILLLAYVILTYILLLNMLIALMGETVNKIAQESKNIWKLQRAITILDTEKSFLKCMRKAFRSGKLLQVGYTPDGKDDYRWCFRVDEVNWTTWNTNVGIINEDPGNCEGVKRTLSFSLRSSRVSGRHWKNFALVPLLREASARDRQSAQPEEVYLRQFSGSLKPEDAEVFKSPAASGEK

What follows are compounds tested against Transient receptor potential cation channel subfamily V member 1 (Homo sapiens) (UniProt Q8NER1) (assay: HTS Assay for Compounds that Act as Agonists of the Vanilloid Receptor 1). Details: TRPV1-expressing cells, Fluo-8 calcium influx, agonist mode; at 8.33 µM, active compounds read high.
Outline: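 Cells expressing TRPV1 were dye-loaded with Fluo-8 and read kinetically: 10 s baseline, 3 min after compound (agonist portion), then 2 min after EC20 capsaicin (allosteric enhancer portion). Calcium-bound dye fluorescence at 480/520 nm.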
Note: 0% is about no effect.

SMILES	activation
CCc1ccc(/C=C2\SC(N3CCOCC3)=NC2=O)cc1	active: 89.7%
Cc1cc(C)cc(NC(=S)NCc2cccnc2)c1	inconclusive: 47.8%
O=[N+]([O-])c1ccc(SCc2ccncc2)nc1	inactive: 0.64%
CCOc1ccc(/C=C2/SC(=O)NC2=S)cc1	inactive: -1.07%
O=C(Oc1ccc(N2C(=O)CCC2=O)cc1)c1ccccc1Cl	inactive: 1.86%
Clc1ccccc1Cn1nnc2c(NCCN3CCOCC3)ncnc21	inactive: 13.6%
O=C(CN1CCCC1)Nc1ccccc1Sc1ccc(Cl)cc1	inactive: -11.9%
OC1(c2ccc(Cl)cc2)CCN(Cc2cn[nH]c2-c2ccccc2)CC1	inactive: 4.59%
CCOC(=O)C1=C(C)NC(SC)=C(C#N)C1CC(C)C (configuration not stated)	inconclusive: 32.1%
COc1ccc2[nH]c(C)c(CCNC(=S)Nc3cc(C)ccc3C)c2c1	inconclusive: 57.9%
Cc1ccc(S(=O)(=O)NCC(=O)NC2CCCCCC2)cc1	inconclusive: 37.4%
CCOc1ccccc1Cn1c(=O)sc2ccccc21	inactive: 10.8%
CCOP(=O)(OCC)c1nc(-c2ccccc2)oc1NCc1ccccc1	inconclusive: 57.5%
Cc1ccc(NC(=O)c2nc[nH]c2C(=O)NCCCCCNC(=O)OC(C)(C)C)cc1	inactive: 20.1%
CC1CCc2[nH]c3ccc(C(=O)N(C)CC(=O)Nc4ccccc4Br)cc3c2C1 (configuration not stated)	inactive: 2.91%
COc1ccc(CCN(C)c2ncnc3sccc23)cc1OC	inactive: 1.06%
O=C(Nc1ccccc1)c1sc(N2CCOCC2)nc1-c1ccccc1	inconclusive: 31%
COc1ccc(CCNC(=O)c2cc(=O)c3cc(C)ccc3o2)cc1	inconclusive: 34.6%
O=C(CCNc1ccc(F)c(Cl)c1)c1ccco1	inconclusive: 42.3%
Cc1csc(NC(=O)c2ccc3c(c2)OCO3)n1	inconclusive: 43.5%
Cc1ccccc1CC(=O)Nc1cc(C(C)(C)C)on1	inconclusive: 33.7%
CCSc1nnc(-c2ccc(C)cc2)c2ccccc12	inconclusive: 46.9%
Cc1ccc2nc(C)/c(=N\O)c(C)nc2c1	inactive: 22.9%
Cc1ccc2nc3c(cc2c1)c(NC(=O)c1ccccn1)nn3CC(C)C	inconclusive: 63.1%
CC(C)CCOP(=O)(c1ccc(N(C)C)cc1)C(O)c1ccc(C(C)C)cc1 (configuration not stated)	inconclusive: 30.3%
CCOC(=O)N1CCN(C(=O)c2ccc(Cn3c(=S)[nH]c4cc5c(cc4c3=O)OCO5)cc2)CC1	inactive: 0.368%
COc1cccc(/C=N/Nc2nc(Nc3ccccc3)nc(-n3nc(C)cc3C)n2)c1O	inactive: 0.499%

Three compounds out of the list, ordered by molar mass, falling.
SMILES	activation
Cc1ccc(NC(=O)c2nc[nH]c2C(=O)NCCCCCNC(=O)OC(C)(C)C)cc1	inactive: 20.1%
O=C(Oc1ccc(N2C(=O)CCC2=O)cc1)c1ccccc1Cl	inactive: 1.86%
Cc1ccccc1CC(=O)Nc1cc(C(C)(C)C)on1	inconclusive: 33.7%
